According to PMC12596413:
Results are given in words; binding and its absence hold for the method and conditions named. In cells and extracts the contact can be indirect. Some entries that bind do so weakly or less than the wild type.

Sequences of proteins named here, by UniProt entry; tags and fusion partners are left off.
UniProt Q5S006: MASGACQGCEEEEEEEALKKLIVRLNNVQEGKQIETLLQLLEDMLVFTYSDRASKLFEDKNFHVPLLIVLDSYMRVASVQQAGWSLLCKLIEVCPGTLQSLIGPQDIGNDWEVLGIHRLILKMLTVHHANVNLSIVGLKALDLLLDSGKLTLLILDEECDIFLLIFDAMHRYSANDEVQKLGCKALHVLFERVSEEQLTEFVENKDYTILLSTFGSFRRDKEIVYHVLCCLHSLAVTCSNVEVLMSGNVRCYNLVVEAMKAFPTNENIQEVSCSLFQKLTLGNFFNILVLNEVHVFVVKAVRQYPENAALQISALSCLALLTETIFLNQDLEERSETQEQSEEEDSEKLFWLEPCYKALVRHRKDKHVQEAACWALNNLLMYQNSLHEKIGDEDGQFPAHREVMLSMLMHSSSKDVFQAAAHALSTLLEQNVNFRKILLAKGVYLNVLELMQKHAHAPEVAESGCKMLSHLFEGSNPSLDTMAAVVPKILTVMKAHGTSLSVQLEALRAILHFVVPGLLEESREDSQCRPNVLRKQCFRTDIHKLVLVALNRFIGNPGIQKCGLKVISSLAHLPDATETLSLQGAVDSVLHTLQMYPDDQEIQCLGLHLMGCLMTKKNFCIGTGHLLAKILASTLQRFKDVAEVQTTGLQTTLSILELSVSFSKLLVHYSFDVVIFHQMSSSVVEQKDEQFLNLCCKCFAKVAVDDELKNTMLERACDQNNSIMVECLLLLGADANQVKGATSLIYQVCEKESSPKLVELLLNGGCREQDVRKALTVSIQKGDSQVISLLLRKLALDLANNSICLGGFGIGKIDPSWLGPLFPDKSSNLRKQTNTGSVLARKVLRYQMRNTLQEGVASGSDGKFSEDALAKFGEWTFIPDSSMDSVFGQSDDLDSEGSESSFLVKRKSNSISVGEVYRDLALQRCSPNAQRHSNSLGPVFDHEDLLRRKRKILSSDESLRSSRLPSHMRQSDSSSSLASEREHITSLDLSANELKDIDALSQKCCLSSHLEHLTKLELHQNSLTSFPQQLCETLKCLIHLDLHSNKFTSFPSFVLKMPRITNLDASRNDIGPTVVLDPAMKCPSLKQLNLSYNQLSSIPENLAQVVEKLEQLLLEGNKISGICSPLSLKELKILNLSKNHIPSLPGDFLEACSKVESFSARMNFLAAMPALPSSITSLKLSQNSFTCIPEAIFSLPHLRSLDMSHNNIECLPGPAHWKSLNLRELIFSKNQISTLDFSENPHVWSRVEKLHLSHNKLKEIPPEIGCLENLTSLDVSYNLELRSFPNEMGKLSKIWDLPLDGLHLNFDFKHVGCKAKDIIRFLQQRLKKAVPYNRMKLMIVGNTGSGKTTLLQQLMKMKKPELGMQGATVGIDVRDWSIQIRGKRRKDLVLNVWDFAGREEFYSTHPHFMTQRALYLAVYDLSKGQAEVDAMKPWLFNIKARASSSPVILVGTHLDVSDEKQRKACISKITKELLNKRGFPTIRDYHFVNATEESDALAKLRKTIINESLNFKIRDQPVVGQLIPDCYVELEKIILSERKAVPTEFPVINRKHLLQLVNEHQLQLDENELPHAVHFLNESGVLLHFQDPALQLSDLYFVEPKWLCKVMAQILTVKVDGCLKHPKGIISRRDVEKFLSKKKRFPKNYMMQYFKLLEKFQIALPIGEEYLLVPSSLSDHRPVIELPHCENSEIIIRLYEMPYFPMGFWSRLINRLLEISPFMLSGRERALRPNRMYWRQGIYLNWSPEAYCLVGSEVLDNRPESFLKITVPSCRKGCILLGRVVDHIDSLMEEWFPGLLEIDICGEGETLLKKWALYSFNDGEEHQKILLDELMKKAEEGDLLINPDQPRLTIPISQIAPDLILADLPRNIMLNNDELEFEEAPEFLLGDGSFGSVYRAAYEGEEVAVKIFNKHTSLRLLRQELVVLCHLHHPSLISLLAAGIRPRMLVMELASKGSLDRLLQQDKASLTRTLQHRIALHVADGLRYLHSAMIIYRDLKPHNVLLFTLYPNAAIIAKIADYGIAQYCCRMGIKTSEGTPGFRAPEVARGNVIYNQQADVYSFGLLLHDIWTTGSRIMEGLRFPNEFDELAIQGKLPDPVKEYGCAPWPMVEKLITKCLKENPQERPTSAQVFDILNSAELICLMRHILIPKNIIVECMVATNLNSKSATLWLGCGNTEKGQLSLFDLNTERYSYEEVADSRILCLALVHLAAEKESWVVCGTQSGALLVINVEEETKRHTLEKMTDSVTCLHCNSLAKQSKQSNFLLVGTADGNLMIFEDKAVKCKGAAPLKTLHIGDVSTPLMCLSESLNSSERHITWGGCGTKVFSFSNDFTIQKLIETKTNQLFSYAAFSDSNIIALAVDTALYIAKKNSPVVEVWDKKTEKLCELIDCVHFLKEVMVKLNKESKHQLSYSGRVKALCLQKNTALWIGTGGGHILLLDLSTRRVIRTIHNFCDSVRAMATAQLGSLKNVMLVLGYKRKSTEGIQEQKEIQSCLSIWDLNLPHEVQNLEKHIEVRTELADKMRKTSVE

How the values were obtained:
[1] = target: p62/SQSTM1 (mouse (endogenous in BV2)) (UniProt Q64337); experiment: co-IP; immunoprecipitation (IP) and reverse-IP of lysates from BV2 cells with antibodies specific for LRRK2 and p62, p62 and Nrf2; Western blot of the immunoprecipitated proteins
[2] = target: T1, Nuclear factor erythroid 2-related factor 2 (Nrf2) (mouse (endogenous in BV2)) (UniProt Q60795); experiment: as above
T1 sequence: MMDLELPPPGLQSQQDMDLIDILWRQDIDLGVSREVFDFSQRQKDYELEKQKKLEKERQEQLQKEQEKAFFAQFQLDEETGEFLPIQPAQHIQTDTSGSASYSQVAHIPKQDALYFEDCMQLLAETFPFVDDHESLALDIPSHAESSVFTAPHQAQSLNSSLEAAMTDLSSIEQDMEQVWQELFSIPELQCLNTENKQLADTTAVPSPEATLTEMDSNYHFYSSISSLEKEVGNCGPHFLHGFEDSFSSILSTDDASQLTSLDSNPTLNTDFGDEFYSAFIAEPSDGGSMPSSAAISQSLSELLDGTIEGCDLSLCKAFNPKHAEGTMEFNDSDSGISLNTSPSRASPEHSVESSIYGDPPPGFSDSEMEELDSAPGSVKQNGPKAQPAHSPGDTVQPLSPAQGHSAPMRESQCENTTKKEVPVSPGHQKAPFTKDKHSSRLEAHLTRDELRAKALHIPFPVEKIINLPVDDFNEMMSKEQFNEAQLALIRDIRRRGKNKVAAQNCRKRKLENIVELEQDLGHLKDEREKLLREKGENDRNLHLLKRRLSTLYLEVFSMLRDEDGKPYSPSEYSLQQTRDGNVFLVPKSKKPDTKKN

Leucine-rich repeat kinase 2 (LRRK2) (from UniProt Q5S006 1-2527)
binding [1]: binds

p62/SQSTM1 (from UniProt Q64337-1 1-442)
binding [2]: binds
